In PubChem BioAssay AID1347076 (National Center for Advancing Translational Sciences (NCATS), 2019):
In all, about 400,000 compounds went through this assay and about 13,000 (3.2%) were called active. The inconclusive results got no clear call from the source; some entries with a clear call stand among them for comparison. The call rests on the fitted dose curve; in most records, active means well fitted cell-killing curve with a large enough effect; inconclusive means small, poorly fitted or top-dose-only effect, or effect the other way; inactive means flat fitted curve, though single readings scatter. A potency beside an inconclusive call is a rough fit, not a confirmed value.

Assay: qHTS assay for MDR1-selective chemotherapeutics: Primary screen using the drug-selected MDR subline cells KB-V1; further: nearly all actives have a fitted effect of over 60% in size
Details: KB-V1 MDR cells viability, CellTiter-Glo, 72 h; activity change, negative = cytotoxicity: at 46.1 µM (top of the series)
Method in brief: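 Following 72 h at 37 degrees C with compound, KB-V1 cell viability was read by CellTiter-Glo luminescence, medium being phenol-red-free DMEM plus 10% FBS; concentration-response parameters came from normalized, curve-fitted qHTS data.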
On the % scale 0 is the no-effect control and ±100 the full control effect; potency means the concentration at half of the fitted maximal effect.

| SMILES | Potency | activity change, negative = cytotoxicity |
| --- | --- | --- |
| CCC(C)NC(=O)COc1ccccc1[N+](=O)[O-] (centres undefined) | inactive |  |
| Cc1cccc(N=C2NN=C(c3ccccc3F)CS2)c1C | inactive |  |
| Cc1ccccc1C(=O)O[C@H]1[C@H](Cc2ccccc2)NS(=O)(=O)[C@H]2CC3C=C[C@]12O3 |  | inconclusive: -30.8% |
| COc1ccc(CN(C(=O)CN2C(=O)c3ccccc3S2(=O)=O)C(C(=O)NCC2CCCO2)c2ccncc2)cc1 (centres undefined) | inconclusive: 29.1 µM [rising, single point] |  |
| CCOC(=O)c1nc(C)sc1-c1ccnn1S(=O)(=O)c1ccc(C)cc1 | inconclusive: 2.59 µM [cytotoxic, partial curve, poor fit] |  |
| CCCOc1ccc(C(=O)c2nc3c(n2O)CCCC3)cc1 | inconclusive: 35.5 µM [cytotoxic, single point] |  |
| CCCc1cc(-c2nc(-c3ccc(Cl)cc3)cs2)ccn1 | active: 16.4 µM |  |
| CN(CCc1ccccc1)C(=O)c1cccc(NC(=O)Cc2cccc(NC(=O)C3CCN(C(=O)C4CCCCC4)CC3)c2)c1 | inconclusive: 4.11 µM [rising, full curve, poor fit] |  |
| CCOC(=O)c1cnc(SC)nc1Oc1cccc(NS(=O)(=O)c2ccc(Cl)cc2)c1 | inconclusive: 13 µM [cytotoxic, partial curve] |  |
| Cn1nc(C(C)(C)C)c([N+](=O)[O-])c1C(=O)NC(C)(C)C | inconclusive: 16.4 µM [rising, single point] |  |
| Nc1nc(CN2CCOCC2)cs1 | inactive |  |
| COc1ccc(-c2nnc(-c3cccnc3)o2)cc1OC | inconclusive: 10.3 µM [cytotoxic, partial curve, poor fit] |  |
| O=C(NC1CCCCC1)C(c1cccs1)N(Cc1cccs1)C(=O)c1ccco1 (centres undefined) | inconclusive: 16.4 µM [cytotoxic, partial curve] |  |
| COc1cc(NC(=O)Cn2c(=O)oc3cc(S(=O)(=O)N4CCCCCC4)ccc32)cc(OC)c1 | inconclusive: 29.1 µM [cytotoxic, single point] |  |
| COc1ccc(C(=O)N/N=C/c2cccc3cccnc23)cc1 | inconclusive: 16.4 µM [cytotoxic, single point] |  |
| CCOc1ccc(C(=O)NCC(c2cccs2)N(C)C)cc1OCC (centres undefined) | active: 23.1 µM |  |
| Cc1ccc(C)c(NC(=O)CC2Sc3ccccc3NC2=O)c1 (centres undefined) | inconclusive: 8.2 µM [cytotoxic, partial curve] |  |
| COc1ccc(OCCC(=O)OCC(=O)Nc2cccc(S(=O)(=O)N3CCCCC3)c2)cc1 | inactive |  |
| Cc1ccc(C)c(NC(=S)NCCN(C2CCCCC2)C2CCCC2)c1 |  | inconclusive: 6.5% |
| C=CCN1CCN(c2ccncc2S(=O)(=O)N2CCCCC2)CC1 | inconclusive: 7.31 µM [cytotoxic, partial curve] |  |
| C/C(=N/NC(=O)CNC(=O)/C=C/c1ccco1)c1ccc(Cl)cc1 | inactive |  |
| CCSc1sccc1C1C(C#N)=C(N)N(c2cccnc2)C2=C1C(=O)CC(C)(C)C2 (centres undefined) | inconclusive: 8.2 µM [cytotoxic, partial curve, poor fit] |  |
| Cc1[nH]c2ccccc2c1C(c1ccccn1)N1CCC(C(N)=O)CC1 (centres undefined) | inactive |  |

Fetched one by one from the entries so far, five records:

| SMILES | Potency | activity change, negative = cytotoxicity |
| --- | --- | --- |
| O=C(NC1CCCCC1)C(c1cccs1)N(Cc1cccs1)C(=O)c1ccco1 (centres undefined) | inconclusive: 16.4 µM [cytotoxic, partial curve] |  |
| CCOc1ccc(C(=O)NCC(c2cccs2)N(C)C)cc1OCC (centres undefined) | active: 23.1 µM |  |
| Cc1ccc(C)c(NC(=S)NCCN(C2CCCCC2)C2CCCC2)c1 |  | inconclusive: 6.5% |
| COc1ccc(-c2nnc(-c3cccnc3)o2)cc1OC | inconclusive: 10.3 µM [cytotoxic, partial curve, poor fit] |  |
| COc1ccc(CN(C(=O)CN2C(=O)c3ccccc3S2(=O)=O)C(C(=O)NCC2CCCO2)c2ccncc2)cc1 (centres undefined) | inconclusive: 29.1 µM [rising, single point] |  |

The list goes on.

| SMILES | Potency | activity change, negative = cytotoxicity |
| --- | --- | --- |
| Cc1nn(-c2ccccc2)c(Cl)c1CN(C(=O)CCl)c1ccc(Cl)cc1 | active: 20.6 µM |  |
| CCC(CC)C(=O)OCC(=O)Nc1ccc(S(=O)(=O)N2CCOCC2)cc1OC | inconclusive: 18.4 µM [cytotoxic, partial curve, poor fit] |  |
| COc1cccc(C2=CC(c3ccc(OC)c(OC)c3OC)n3ncnc3N2)c1 (centres undefined) | inactive |  |
| O=C(CSc1nc(-c2ccccc2)no1)N1CCN(c2ccccc2F)CC1 | inactive |  |
| CCc1cc(C(=O)Nc2cc(S(=O)(=O)N(CC)CC)ccc2N2CCOCC2)sc1C | inactive |  |
| COc1ccc(CC(=O)Nc2cc(S(=O)(=O)Nc3ccc(OC)cc3)ccc2OC)cc1 | inactive |  |
| Cn1c(=O)c2c(SCC(=O)N3CCc4ccccc43)nc(-c3ccccc3Cl)nc2n(C)c1=O | inconclusive: 29.1 µM [rising, single point] |  |
| Cc1cc(NC(=O)c2ccc(NC(=O)C3CC3)cc2)no1 | inactive |  |
| O=C(CSc1nnc(-c2ccc3c(c2)OCCO3)o1)N1CCCC1 | inconclusive: 10.3 µM [cytotoxic, partial curve] |  |
| Cc1nc(-c2ccccc2)sc1-c1ccc(SCC(=O)NCc2ccc(F)cc2)nn1 | inconclusive: 20.6 µM [cytotoxic, single point] |  |
| CCOC(=O)/C=c1/s/c(=C\c2c(OC)ccc3ccccc23)c(=O)n1CC(=O)NCC1CCCO1 (centres undefined) | active: 4.61 µM |  |
| Cc1cc(=O)[nH]c2nc3ccccc3n12 | inactive |  |
| CCC(CC)C(=O)NC1CC(=O)N(c2ccc3c(c2)OCCO3)C1 (centres undefined) | inconclusive: 20.6 µM [rising, single point] |  |
| Cc1ccc(-c2ccc(=O)n(Cc3cc(C)ccc3C)n2)cc1 | inconclusive: 25.9 µM [cytotoxic, single point] |  |
| CCCc1cc(N2CCCC(C(=O)Nc3cc(Cl)ccc3OC)C2)n2ncnc2n1 (centres undefined) | active: 13 µM |  |
| Cc1ccc(-n2c(C)n[nH]c2=S)cc1 | inconclusive: 29.1 µM [rising, single point] |  |
| CCCOc1ccc(-c2nnn(CC(=O)N3CCCCC3)n2)cc1 | inconclusive: 18.4 µM [cytotoxic, single point] |  |
| CC(=O)Nc1ccc(S(=O)(=O)NCCC(=O)N2CCC(Cc3ccccc3)CC2)cc1 | inconclusive: 20.6 µM [cytotoxic, partial curve] |  |
| CN(C)c1ccc(C=C2c3ccccc3-c3ccccc32)cc1 | inconclusive: 20.6 µM [cytotoxic, partial curve, poor fit] |  |
| COc1cc(-c2cc(C(=O)Nc3ccncc3)c3ccccc3n2)cc(OC)c1OC | inconclusive: 29.1 µM [cytotoxic, partial curve, poor fit] |  |
| c1ccc2c(c1)ncn2CCCCOc1ccc2c(c1)CCC2 | inconclusive: 29.1 µM [cytotoxic, single point] |  |
| CCOc1ccc(-n2c(SCC(=O)N3CCCC3)nc3c([nH]c4ccccc43)c2=O)cc1 | inconclusive: 29.1 µM [rising, single point] |  |
| COC(=O)N/N=C/c1c[nH]c2ccccc12 | inactive |  |

| SMILES | Potency | activity change, negative = cytotoxicity |
| --- | --- | --- |
| Cc1cccn2c(CNCCCn3ncc4ccccc43)c(C(=O)N3CCCCC3)nc12 | inconclusive: 2.31 µM [cytotoxic, partial curve, poor fit] |  |
| Cc1ccccc1-n1nc(C)c2cc(C(=O)N3CCN(S(=O)(=O)c4ccc(Cl)cc4)CC3)sc21 | inconclusive: 29.1 µM [cytotoxic, single point] |  |
| COc1ccc(OC)c(NC(=O)c2cc(-c3cc(Cl)ccc3O)n[nH]2)c1 | inconclusive: 29.1 µM [cytotoxic, single point] |  |
| COc1ccc(CCNC(=O)CS(=O)Cc2nc(-c3ccccc3Cl)oc2C)cc1OC (centres undefined) | inconclusive: 3.66 µM [cytotoxic, partial curve, poor fit] |  |
| COC(=O)c1c(C)[nH]c(C(=O)OCc2csc(CC(=O)Nc3ccccc3C)n2)c1C | inactive |  |
| CC(C)(C)c1ccc(-c2n[nH]c(=S)n2-c2ccccc2)cc1 | inconclusive: 29.1 µM [cytotoxic, single point] |  |
| CCn1nnc2cc(C(=O)N3CCC(C(=O)OC)CC3)ccc21 | inconclusive: 23.1 µM [rising, single point] |  |
| C=C(C)c1cccc(C(C)(C)NC(=O)N(Cc2ccccc2)Cc2ccco2)c1 | inconclusive: 29.1 µM [cytotoxic, single point] |  |
| CCOc1ccc(-n2c(CCC(=O)O)ccc2-c2ccc(Br)cc2)cc1 | inactive |  |
| COc1ccc([C@H]2C[C@@H](n3cc(C4CC4)nn3)[C@H](O)CN2CC2CCCCC2)cc1 | inconclusive: 32.6 µM [cytotoxic, single point] |  |
| COC(=O)[C@@]1(Cc2ccccc2)[C@H]2C(=O)N(C)C(=O)[C@H]2[C@H]2CN=C(SCc3ccc(C)cc3)N21 | inconclusive: 0.411 µM [rising, full curve, poor fit] |  |
| Brc1cc(Br)c2ncnc(N3CCCCC3)c2c1 | inconclusive: 10.3 µM [cytotoxic, partial curve] |  |
| Cc1cc(N2CCN(c3ccc([N+](=O)[O-])c4cccnc34)CC2)c2ccccc2n1 | inconclusive: 20.6 µM [cytotoxic, partial curve, poor fit] |  |
| CCCS(=O)(=O)Nc1cc(-c2cn3cccc(C)c3n2)ccc1C | inactive |  |
| S=C(NCc1ccco1)Nc1ccc(Oc2ccccc2)cc1 | inactive |  |
| CC(=O)[C@H]1CC[C@@H](c2ccccc2)N(S(=O)(=O)c2ccc(C)cc2)C1 | inconclusive: 11.6 µM [cytotoxic, single point] |  |
| CSCCC(NC(=O)c1ccccc1)C(=O)NCC(C)(C)N1CCOCC1 (centres undefined) | inactive |  |
| COC(=O)c1ccc(OC(=O)C2CC(=O)N(c3cccc(C)c3)C2)cc1 (centres undefined) |  | inconclusive: 34.6% |
| COc1ccc(N2CCN(C(=O)CCCCCn3c(=O)[nH]c4ccsc4c3=O)CC2)cc1 | inconclusive: 29.1 µM [cytotoxic, single point] |  |
| Cc1ccc(S(=O)(=O)N2CCCc3cc(NS(=O)(=O)c4ccc(F)c(C)c4)ccc32)cc1 | inconclusive: 20.6 µM [cytotoxic, single point] |  |
| Cc1cc(N2CC(C)OC(C)C2)nc(C(C)C)n1 (centres undefined) | inactive |  |
| Cc1ccc(NS(=O)(=O)c2ccc(Cl)s2)nc1 | inconclusive: 29.1 µM [rising, single point] |  |
| Cc1ccc(NC(=S)N(C)C)cc1C | inactive |  |
